These are yes or no findings as the source states them, for the method shown. For part of these data: Binding seen in cells or lysates may run through a third protein. Some results given as binding are weak or reduced against the parent protein; the word gives no strength. For part of these data: Tags and fused reporters may be left off the sequences shown. Each block holds one binder with its values, some of them ahead of it.
Tests used:
[1] = target: T1, eGFP-TOFU-2 (full-length CeTOFU-2) (C. elegans) (UniProt Q19614); test: co-IP; BmN4 cells transfected with the indicated constructs; eGFP-TOFU-2 immunoprecipitated with GFP-Trap beads overnight at 4 C in IP-150 lysis buffer (30 mM HEPES pH 7.4, 150 mM KOAc, 2 mM Mg(OAc)2, 0.1% IGEPAL); western blot for Flag and HA
T1 sequence: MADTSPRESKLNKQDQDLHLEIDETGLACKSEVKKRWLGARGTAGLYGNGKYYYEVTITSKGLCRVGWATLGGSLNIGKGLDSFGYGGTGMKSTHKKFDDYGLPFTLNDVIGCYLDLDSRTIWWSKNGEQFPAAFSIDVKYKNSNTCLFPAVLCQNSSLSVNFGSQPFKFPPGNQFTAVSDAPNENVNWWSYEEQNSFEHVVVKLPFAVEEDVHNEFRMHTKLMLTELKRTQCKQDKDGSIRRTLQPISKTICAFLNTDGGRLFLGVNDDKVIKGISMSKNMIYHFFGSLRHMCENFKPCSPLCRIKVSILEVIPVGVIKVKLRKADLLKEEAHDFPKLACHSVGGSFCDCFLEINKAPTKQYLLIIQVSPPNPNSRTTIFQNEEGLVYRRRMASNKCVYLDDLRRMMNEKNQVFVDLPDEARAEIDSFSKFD

[2] = target: T2, TOFU-2 (residues 200-433), subunit of mini-PUCH (C. elegans) (UniProt Q19614); test: co-purification of a co-expressed complex (IMAC, heparin, SEC); TOFU-1 160-373, TOFU-2 200-433 (or E216A) and SLFL-3 1-345 co-expressed in E. coli BL21(DE3); HisTrap, HiTrap Heparin, then HiLoad Superdex 200 16/600 in 20 mM Tris/HCl pH 7.5, 150 mM NaCl, 10% glycerol, 2 mM DTT
T2 sequence: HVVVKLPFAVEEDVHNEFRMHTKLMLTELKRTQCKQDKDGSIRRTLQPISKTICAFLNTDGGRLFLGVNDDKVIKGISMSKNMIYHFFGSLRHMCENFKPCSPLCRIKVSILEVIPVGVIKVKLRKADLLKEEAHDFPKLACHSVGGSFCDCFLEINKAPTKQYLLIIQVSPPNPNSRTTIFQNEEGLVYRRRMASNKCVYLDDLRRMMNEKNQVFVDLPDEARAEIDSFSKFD

[3] = target: T3, TOFU-2 (residues 200-433, E216A), subunit of inactive mini-PUCH (C. elegans) (UniProt Q19614); test: as above
T3 sequence: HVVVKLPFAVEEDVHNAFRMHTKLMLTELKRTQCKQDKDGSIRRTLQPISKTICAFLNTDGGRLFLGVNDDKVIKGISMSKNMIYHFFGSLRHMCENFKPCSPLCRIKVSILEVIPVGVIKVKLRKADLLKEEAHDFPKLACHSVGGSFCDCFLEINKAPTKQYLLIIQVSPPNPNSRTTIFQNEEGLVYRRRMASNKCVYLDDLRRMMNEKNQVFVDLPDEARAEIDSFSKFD

MBP-tagged TOFU-1^82-373 = target: T4, MBP-tagged TOFU-1^82-373 (C. elegans, UniProt O17608 82-373); test: pull-down; purified MBP-tagged TOFU-1 as bait on amylose beads, incubated with excess prey; 20 mM Tris/HCl pH 7.5, 150 mM NaCl, 10% glycerol, 0.05% NP40, 1 mM DTT; SDS-PAGE with Coomassie staining; both purified
T4 construct: TOFU-1 (SLFL-1), C. elegans, residues 82-373; source: E. coli BL21(DE3) derivative, purified; not shown: MBP, N-terminal, kept
T4 sequence (looked up): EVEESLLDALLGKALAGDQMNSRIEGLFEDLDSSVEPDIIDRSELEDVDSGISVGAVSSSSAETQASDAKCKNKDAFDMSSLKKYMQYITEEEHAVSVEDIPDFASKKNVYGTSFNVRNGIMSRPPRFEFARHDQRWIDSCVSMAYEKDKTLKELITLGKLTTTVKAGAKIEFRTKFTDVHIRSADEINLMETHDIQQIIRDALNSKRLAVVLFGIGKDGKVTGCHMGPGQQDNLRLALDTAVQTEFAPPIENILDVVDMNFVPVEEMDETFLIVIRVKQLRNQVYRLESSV

[4] = target: T5, TOFU-1^82-172 L88R/L92R (C. elegans) (UniProt O17608); test: SEC; purified proteins alone or mixed at 20-40 uM, 1 h on ice; Superdex 200 Increase 3.2/300 in 20 mM Tris/HCl pH 7.5, 150 mM NaCl, 2 mM DTT; elution volumes compared, peak fractions on SDS-PAGE; both purified
T5 sequence: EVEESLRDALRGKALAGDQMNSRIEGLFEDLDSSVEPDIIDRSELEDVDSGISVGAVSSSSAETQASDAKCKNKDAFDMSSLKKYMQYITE

B2: SLFL-3 (residues 1-345), subunit of mini-PUCH (domain or fragment, UniProt O61766 1-345)
chain: MDSGDFSPMQSNFSLGFMSFEDIPEDARTTEMIDKIVFEEDKEYDHTQDSFRYGRVTTGVSYNLVTGKIPKTVFEQVKAKDDENDNVEFEMEHLEDKETAHKTQTFDELYESQMPKYFDYQSNFSDVNGIWTLLFDQNHYEKMSTFELQAAICAALNSKHFMMICVGIDAFNAVTGVEMSAKDRVVFRMALTRAVAGEFQPPLVKVAPKQLTGVSPMKRDISEVTSSIDVLFVPVIGVTDEVENNRFLIVVRVKEISDKVYQISSGRIYNEQEGRVVEMSDMNEAFHKLIVEKSISDIQTRRGSMFMLEPEPFLEDSAVIFTESNEIPSENHEISRVHVKNCTER
binding [2]: binds
binding [3]: binds

B3: PETISCO (recombinant, reconstituted: IFE-3, TOFU-6, ERH-2 and PID-3) (complex, UniProt O61955 1-251; Q09293 1-367; O76616 1-307; Q20057 1-113)
chain 1: MSTSVAENKALSASGDVNASDASVPPELLTRHPLQNRWALWYLKADRNKEWEDCLKMVSLFDTVEDFWSLYNHIQSAGGLNWGSDYYLFKEGIKPMWEDVNNVQGGRWLVVVDKQKLQRRTQLLDHYWLELLMAIVGEQFDEYGDYICGAVVNVRQKGDKVSLWTRDATRDDVNLRIGQVLKQKLSIPDTEILRYEVHKDSSARTSSTVKPRICLPAKDPAPVKEKGPAATTSPSNPGTEATGTSPATPTP
chain 2: MASSSTAYYLKDAGFHIRNIPKAWNDWNLFHVFQNFGKVSYCRVVGQSNDGQVQLGFVNMMSVADADEVRKNLNDGNLIGENFTLKVTDHKNVGGSLLPMASNSVQKLVSSPPSKSGPVLLSSSWLPLNKDIEVEVVDYLPSSSVAPDLFALTLLRINDSSMKEKYDSMHEKMNAYAQIVPFDSELEIGYDGVFRDAPRSVRRVRRISATKLYLVDFGKIINYEKAKCFQLPKVFQSMPTRVSLCGLDGLTWSPVAIPSFDNIREVVKKWGQMENSTLHAMACGFQGSINMINLFCGKSILADRLQRKGVCEYLPRSQQPHYAYSRETLLQHNNSGVTAQISNDADVVKDLLKKIDGVKNMLRELEL
chain 3: MVAHQKADFKSKWAMVVTVNNLNDKKRADLREFSEWFIETLRLEGAFIGHYFNYEAAPVTIVETLPGNFDSCTNAYQKIHKEHPQVVLVVHILPQSQSNEYEWMKVLASRYGFVRQGLLYDNCANRFQNVETDQNSVFRNMCQWIYRSGTAIVRNEGNACGILHGKDPKPTFDKVLFNSEDIKDSVFKVLHAEEEPRGADQENMLKISGYPGMLNTFGIAQLLTPYRVNGITITGAQSAVVALENKFQVYQAVQDFNGKKLDRNHKLQVSSLVVSSPAVPLEWPSLKKSKKLVEQVGKPIRLSKVSS
chain 4: MSTSSHTVLLIQTSPRLDSRTWGDYESVTDALDALCKMFEDFLSKKSAAPVTYDVSQVYEFLDKLSDVSMMIFNRETGQYIGRTRAWIKQQVYEMMRGRCQHPEGGEKVIVGY
binding (MBP-tagged TOFU-1^82-373): binds

B4: HA-SLFL-4 (CeSLFL4) (protein, UniProt O76720 1-352)
chain: MIDKIVFEEDEEYDLTQDSFRYGRVTTGASYNLVTGKIPETVLEQVKAKDDENDDVEFEMDHLEDKEAVQKTKTFDELYESQMPKYFEYQSNFSEVNGIWTLLFDQNHYENMSTFELQAAICAALNSKHYMMICVGIDAFNAVTGVEMSAKDRVVFRMALTRAVAGEFQPPLVKVAPKQLTGVSPMKRDISEVTSSIDVLFIPVIGVTDEVENNRFLIVVRVKEISDKVYQISSGRIYNELEGRVVEMSDMNEAFHKLIVEQSISDIQTRRGSMFMLEPEPFLEDSPVIFTGSKEILRENHEIPNILKENSTERSLSQSLLNLLDIQNIGWIFFGTALSCCIYNNAIKPLVK
binding [1]: binds

B6: TOFU-1 (residues 160-373), subunit of mini-PUCH (domain or fragment, UniProt O17608 160-373)
chain: MSSLKKYMQYITEEEHAVSVEDIPDFASKKNVYGTSFNVRNGIMSRPPRFEFARHDQRWIDSCVSMAYEKDKTLKELITLGKLTTTVKAGAKIEFRTKFTDVHIRSADEINLMETHDIQQIIRDALNSKRLAVVLFGIGKDGKVTGCHMGPGQQDNLRLALDTAVQTEFAPPIENILDVVDMNFVPVEEMDETFLIVIRVKQLRNQVYRLESSV
binding [2]: binds
binding [3]: binds

B7: TOFU-6^eTUDOR V266E (domain or fragment, UniProt Q09293 119-314)
chain: VLLSSSWLPLNKDIEVEVVDYLPSSSVAPDLFALTLLRINDSSMKEKYDSMHEKMNAYAQIVPFDSELEIGYDGVFRDAPRSVRRVRRISATKLYLVDFGKIINYEKAKCFQLPKVFQSMPTRVSLCGLDGLTWSPVAIPSFDNIREEVKKWGQMENSTLHAMACGFQGSINMINLFCGKSILADRLQRKGVCEYL
binding [4]: no binding

Further lines, results first:

binding [1]: binds
B1: HA-SLFL-3 (CeSLFL3) (protein, UniProt O61766 1-383)
chain: MDSGDFSPMQSNFSLGFMSFEDIPEDARTTEMIDKIVFEEDKEYDHTQDSFRYGRVTTGVSYNLVTGKIPKTVFEQVKAKDDENDNVEFEMEHLEDKETAHKTQTFDELYESQMPKYFDYQSNFSDVNGIWTLLFDQNHYEKMSTFELQAAICAALNSKHFMMICVGIDAFNAVTGVEMSAKDRVVFRMALTRAVAGEFQPPLVKVAPKQLTGVSPMKRDISEVTSSIDVLFVPVIGVTDEVENNRFLIVVRVKEISDKVYQISSGRIYNEQEGRVVEMSDMNEAFHKLIVEKSISDIQTRRGSMFMLEPEPFLEDSAVIFTESNEIPSENHEISRVHVKNCTERSLSQSLLNLLDIQNIGWIFFGTALSFCIYNNAIKPLVK

binding [1]: binds
B5: TOFU-1-3xFlag-mCherry (CeTOFU-1) (protein, UniProt O17608 1-373)
chain: MAALFEENDSYSDSENEEDFSGFLSEIEENENEDEFENDDEFEDDDELENVDELEDDELSSEEVDIPSENEVIVELHDGQAEVEESLLDALLGKALAGDQMNSRIEGLFEDLDSSVEPDIIDRSELEDVDSGISVGAVSSSSAETQASDAKCKNKDAFDMSSLKKYMQYITEEEHAVSVEDIPDFASKKNVYGTSFNVRNGIMSRPPRFEFARHDQRWIDSCVSMAYEKDKTLKELITLGKLTTTVKAGAKIEFRTKFTDVHIRSADEINLMETHDIQQIIRDALNSKRLAVVLFGIGKDGKVTGCHMGPGQQDNLRLALDTAVQTEFAPPIENILDVVDMNFVPVEEMDETFLIVIRVKQLRNQVYRLESSV

— article PMC10567574, “piRNA processing by a trimeric Schlafen-domain nuclease” (Nature, 2023)
